According to the supplement of paper PMC3334620:
The full ranking holds about 33,000 sequences; the median of “E-score (-0.5 to 0.5)” is about -0.0034, and the highest 2% start at about 0.25. This is one part of the list.

molecular target: T1, Yap3 (UniProt P38749); assay: PBM E-score (8-mer binding enrichment) (E-score (-0.5 to 0.5)); higher = stronger / more preferred TF binding; conditions: protein concentration: 100 nM; construct: GST-full length
T1 sequence: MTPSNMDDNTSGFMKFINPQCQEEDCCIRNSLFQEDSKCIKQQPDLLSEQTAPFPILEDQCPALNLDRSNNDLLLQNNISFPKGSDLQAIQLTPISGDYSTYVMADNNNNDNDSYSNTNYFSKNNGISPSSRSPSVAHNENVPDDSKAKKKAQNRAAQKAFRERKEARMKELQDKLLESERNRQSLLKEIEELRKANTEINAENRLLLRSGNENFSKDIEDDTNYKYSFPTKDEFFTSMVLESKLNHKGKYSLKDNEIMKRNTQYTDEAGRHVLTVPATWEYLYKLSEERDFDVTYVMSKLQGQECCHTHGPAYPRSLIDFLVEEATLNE
Outline: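 Full-length yeast transcription factors or their DNA-binding domains, GST-tagged and expressed with PURExpress, were applied at about 100-200 nM to universal all-10-mer Agilent arrays. These arrays had been made double-stranded by primer extension on fresh or once-stripped slides. Detection used fluorescent anti-GST, normalisation used masliner, and E-scores for ungapped eight-base words pooled with reverse complements came from the Universal PBM Analysis Suite.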

Sequence	PBM E-score
ATGGGTCA	-0.0716
ACAAATTA	0.242
CGTTCTCA	-0.0074
CCCTTAGA	-0.0783
AATGTGTC	0.107
CCATCCCA	-0.131
TGACACAA	0.153
CAGAGAGC	-0.176
AACGGGCC	-0.145
ACTACGCA	-0.0192
CAACCATC	-0.0758
GGTTCGAC	0.00247
ACAGATTC	0.102
GCACCGCA	-0.148
AAAGAGTC	-0.136
AAGTGTCT	-0.0317
ATTTACAG	0.148
GCCGCCCC	-0.152
AAGGAATT	0.0383
ACTGCAGC	-0.0363
ATCGGCAA	-0.0735
ACCGCCAC	-0.122
GTACATAA	0.135
TGTCGACA	-0.033
AGGTGAAG	0.0344

Sequence	PBM E-score
ACCCTGGG	-0.302
AAACTCGG	0.0843
ACCTCCTG	-0.0595
CATCAGCC	-0.0344
AACGCGGG	0.0467
AATGAAAC	0.235
CACCGAGG	-0.178
GATCAAGA	-0.0818
GGACTGGA	-0.217
AGGCTATA	-0.0558
CATGATCA	0.0976
TAAGAGTA	0.0949
CCAGAGGC	-0.131
CTGCATTA	-0.0676
CGACGCCC	-0.0838
CCGCTTAA	0.0874
ACCTGGGG	-0.308
GCGATCCA	-0.00197
AGACGCCA	-0.129
TACCTTCA	0.0161
CCAGCCAG	-0.213
AGATATTA	0.162
GTGGAGTA	0.0683
ACGTCTCG	-0.1
CATTAATA	0.193

Single entries from the list:
For PBM E-score, AACGCGGG has the entry 0.0467
For PBM E-score, CCAGAGGC has the entry -0.131
For PBM E-score, ACGTCTCG has the entry -0.1
For PBM E-score, CACCGAGG has the entry -0.178
For PBM E-score, CATTAATA has the entry 0.193
For PBM E-score, GCGATCCA has the entry -0.00197
For PBM E-score, AATGAAAC has the entry 0.235

Next records follow:

Sequence	PBM E-score
GCATAGAA	0.0775
CAAGCGAG	0.144
CATCCCCA	-0.12
AATAGAGA	0.0381
ACGAACGG	0.138
CCGCGCGC	0.0469
ACCCAGTA	-0.0533
AACCGTGG	-0.172
ATCTCTTA	0.0654
GGTAGACA	0.018
CTGCTGCC	-0.169
AAGCAGCT	-0.0325
AGAGTCCC	-0.244
ATGTGCAC	-0.00048
CCCCGATC	-0.327
ACGAGGCT	0.117
CTAATGGA	-0.0109
CTATATTC	0.151
GGGCATGA	-0.136
ATTAACCA	0.027
CCGAGCAG	-0.0496
AACACCAG	-0.165
AACGAGGT	-0.012
GTGTTTTA	0.0994
CCTCCGGA	-0.139

Sequence	PBM E-score
TCAGCAGA	-0.00622
AGTACACT	-0.00694
GTTCCGAA	0.182
TAGGGGGA	-0.202
TTTCAAAA	0.169
AACTGGTA	0.00808
GCTACAAC	-0.0246
TAGCGGGA	-0.192
AAGTGAGA	0.00798
TAACTGCA	0.172
CTACAATA	0.19
CGCTCGTA	-0.0236
TCGATGAA	0.0106
ATCATCAA	0.123
ATTCTCTC	-0.00402
AGTTAAAT	0.0662
GTCAAGCA	-0.29
CGGTCTCA	-0.167
GTCCCTCA	-0.112
ACAGTAAG	0.153
ATCTCCAA	0.131
CCGGAAGC	-0.101
AGTCGCTG	-0.0975
TAAGTGGA	0.0566
ATTCAACC	-0.0129

Sequence	PBM E-score
GCGGTAGC	0.121
ATACGGTA	0.134
ATACCACA	0.108
GAGTAGGC	-0.109
CACCTGGC	-0.0894
AGGTGCCA	-0.128
CTTGATGC	-0.174
AGATGGAG	0.0683
GAAAAAAC	0.255
CTTTCTCA	0.165
ATAATGAT	0.116
AAGAACTT	0.0679
ACCCAACC	-0.0377
TCGGCAGA	-0.0575
GAGACGAA	-0.0555
GCGTCTCC	-0.0737
CTTCGTTC	0.0138
CGAGACCC	0.0569
CGTGTTCC	0.0154
CCAGGTGA	-0.0411
ACCGCTTC	-0.241
AGGGGGAC	-0.337
ACCTAACC	0.0916
CCAATCTC	0.137
AAATCAAG	0.108

Sequence	PBM E-score
ACATGACA	0.177
CCAAATAA	0.14
GTATCTTA	0.267
ATGGTATG	0.00998
AGCCATGG	-0.203
GCAGGTGA	-0.06
CTCATGTC	-0.164
AACGGCTT	-0.133
CAGATGAG	0.0576
TACGGCTA	-0.0482
AGCCTTCC	-0.312
ATCGGTTC	-0.161
CCGATCAC	0.0564
CTAGGGCC	-0.128
GTTCGTCA	-0.186
AGCCCTGC	-0.26
AGGGCCAT	-0.195
CGTGGGGA	-0.12
TAAACCGA	0.00348
CAGACGCG	-0.185
CAGGCCAC	-0.161
AGTAGATG	0.0925
CGGGCCCG	0.0296
CCGCTAAG	-0.0432
AGCTCCGA	-0.125

Sequence	PBM E-score
AGCTTGGC	-0.207
ACTCATTG	-0.0888
AGCACGCG	-0.0483
ACCGGGAA	0.0397
CTATTCAA	0.101
AGGGGTAC	-0.126
GTGACACA	0.126
GGGAGTAA	0.126
GACTGTAA	0.126
GGAGCCCA	-0.272
AGAGCTGG	-0.137
GGGGCCAA	-0.185
GTAGTTAA	0.142
ACTTAGGA	-0.122
GCCTTTGA	0.118
GATGCGGC	-0.218
AGTTTAAC	0.0248
CGAGACTA	0.165
CGCTTGGC	-0.178
CCGGAGTC	-0.248
CGGACCTC	-0.21
GCTATAGA	-0.0488
